# From patent US12528846B2, “BH4 stabilized peptides and uses thereof” (Dana-Farber Cancer Institute, Inc., priority 2013, dated 2026)
# By UniProt entry, the sequences of proteins in these tests, tags left out.
# UniProt Q07812, whole entry: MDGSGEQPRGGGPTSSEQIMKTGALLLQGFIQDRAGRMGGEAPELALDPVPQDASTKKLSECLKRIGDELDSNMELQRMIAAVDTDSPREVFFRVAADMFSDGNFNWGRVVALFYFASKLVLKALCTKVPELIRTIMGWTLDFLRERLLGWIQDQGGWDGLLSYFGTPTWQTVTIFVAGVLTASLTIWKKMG
# At least one structure is not confirmed: it was looked up by name or label, or the drawing left a doubt. Positions of bridges follow the written chain, without caps; N, C: chain ends. Non-standard residues stand in square brackets, D forms with d. Residues, ends and D or L forms follow the SMILES beside them. S5 = C=CCCC[C@](C)(N)C(=O)O; Nle = CCCC[C@H](N)C(=O)O
# Molecular target: T1, Recombinant BAX (Homo sapiens, UniProt Q07812)
# T1 construct: made in house
# Test: Fluorescence polarization binding of FITC-labeled BH4 SAHBs
# Conditions: FITC-labeled peptide, room temperature, 60 minutes, nonlinear regression
structure (smiles),measurement,value
CCCC[C@H](NC(=O)[C@@H](NC(=O)[C@@H](NC(=O)[C@H](CCC(=O)O)NC(C)=O)[C@@H](C)CC)C(C)C)C(=O)N[C@@H](CCCCN)C(=O)N[C@@H](Cc1ccc(O)cc1)C(=O)N[C@H](C(=O)N[C@@H](Cc1c[nH]cn1)C(=O)N[C@@H](Cc1ccc(O)cc1)C(=O)N[C@@H](CCCCN)C(=O)N[C@@H](CC(C)C)C(=O)N[C@@H](CO)C(=O)N[C@@]1(C)CCCC=CCCC[C@@](C)(C(=O)N[C@@H](Cc2c[nH]c3ccccc23)C(=O)N[C@@H](CC(=O)O)C(=O)N[C@@H](C)C(N)=O)NC(=O)[C@H](Cc2ccc(O)cc2)NC(=O)CNC(=O)[C@H](CCCNC(=N)N)NC1=O)[C@@H](C)CC [BCL-2 BH4 SAHBA] (Ac-EIV[Nle]KYIHYKLS[S5]RGY[S5]WDA-NH2; staple 13-17; N-terminus and C-terminus assumed),EC50,4.6 nM
